In publication PMC9821907, “Synthesis and Antiprotozoal Activity of Azabicyclo-Nonane Pyrimidine Hybrids” (Molecules, 2022):

Columns and labels:
P. falciparum K1 [1] = system: P. falciparum K1; set-up: method as in PMID 25746816; details: L-6 cytotoxicity versus P. falciparum K1; ref [12]; cited from earlier work
[2] = system: T. brucei rhodesiense STIB900; set-up: method as in PMID 25746816; details: L-6 cytotoxicity versus T. b. rhodesiense; ref [12]; cited from earlier work
P. falciparum NF54 = assay: In vitro microplate 3H-hypoxanthine incorporation assay against P. falciparum NF54; type: cell-based, Plasmodium falciparum; details: L-6 cytotoxicity versus P. falciparum NF54
Description: (§1) Compounds were tested for their activities against Plasmodium falciparum NF54 (sensitive to chloroquine) and Trypanosoma brucei rhodesiense STIB900, via serial dilution assays. Furthermore, selected compounds were tested against the K1 strain of Plasmodium falciparum (resistant against chloroquine, sulfadoxine and pyrimethamine). Their cytotoxicity was determined with rat skeletal myoblasts (L-6 cells).
(§2) In vitro activity against erythrocytic stages of P. falciparum was determined using a ^3H-hypoxanthine incorporation assay using the drug sensitive NF54 strain [27] or the chloroquine- and pyrimethamine-resistant K1 strain [28]. Compounds were dissolved in DMSO at 10 mg/mL and further diluted in medium before being added to parasite cultures incubated in RPMI 1640 medium without hypoxanthine, supplemented with HEPES (5.94 g/L), NaHCO3 (2.1 g/L), neomycin (100 U/mL), Albumax® (5 g/L) and washed human red cells A+ at 2.5% haematocrit (0.3% parasitaemia). Serial drug dilutions of eleven 3-fold dilution steps covering a range from 100 to 0.002 μg/mL were prepared. The 96-well plates were incubated in a humidified atmosphere at 37 °C; 4% CO2, 3% O2, 93% N2. After 48 h, 0.05 mL of ^3H-hypoxanthine (= 0.5 μCi) was added to each well of the plate. The plates were incubated for a further 24 h under the same conditions. The plates were then harvested with a Betaplate™ cell harvester (Wallac, Zurich, Switzerland), and the red blood cells transferred onto a glass fibre filter then washed with distilled water. The dried filters were inserted into a plastic foil with 10 mL of scintillation fluid, and counted in a Betaplate™ liquid scintillation counter (Wallac, Zurich, Switzerland). IC50 values were calculated from sigmoidal inhibition curves by linear regression using Microsoft Excel. Chloroquine (Sigma C6628) was used as control.

P. falciparum K1 [3] = assay: In vitro microplate 3H-hypoxanthine incorporation assay against P. falciparum K1; type: cell-based, Plasmodium falciparum; details: L-6 cytotoxicity versus P. falciparum K1
Description: as §1, §2

[4] = system: T. brucei rhodesiense STIB900; assay: In vitro microplate resazurin assay against T. brucei rhodesiense; type: cell-based, Trypanosoma brucei rhodesiense; details: L-6 cytotoxicity versus T. b. rhodesiense
Description: as §1
Minimum essential medium (50 µL) supplemented with 25 mM HEPES, 1g/L additional glucose, 1% MEM non-essential amino acids (100×), 0.2 mM 2-mercaptoethanol, 1mM Na-pyruvate and 15% heat-inactivated horse serum was added to each well of a 96-well microtiter plate. Serial drug dilutions of eleven 3-fold dilution steps covering a range from 100 to 0.002 μg/mL were prepared. Then 4 × 10^3 bloodstream forms of T. b. rhodesiense STIB 900 in 50 µL was added to each well and the plate incubated at 37 °C under a 5 % CO2 atmosphere for 70 h. Next, 10 µL resazurin solution (resazurin, 12.5 mg in 100 mL double-distilled water) was added to each well and incubation continued for a further 2–4 h. Then the plates were read with a Spectramax Gemini XS microplate fluorometer (Molecular Devices Cooperation, Sunnyvale, CA, USA) using an excitation wave length of 536 nm and an emission wave length of 588 nm. Data were analyzed with the graphic programme Softmax Pro (Molecular Devices Cooperation, Sunnyvale, CA, USA), which calculated IC50 values by linear regression and 4-parameter logistic regression from the sigmoidal dose inhibition curves. Melarsoprol (Arsobal Sanofi-Aventis, received from WHO) was used as control.

| Compound | S.I. = IC50 (Cyt.)/IC50 (P.f.K1) (P. falciparum K1 [1]) | S.I. = IC50 (Cyt.)/IC50 (T.b.r.) [2] | S.I. = IC50 (Cyt.)/IC50 (P.f.NF54) (P. falciparum NF54) | S.I. = IC50 (Cyt.)/IC50 (P.f.K1) (P. falciparum K1 [3]) | S.I. = IC50 (Cyt.)/IC50 (T.b.r.) [4] |
| --- | --- | --- | --- | --- | --- |
| 1-(piperidin-1-yl)-3-azabicyclononane [Compound 3] | 162.9 ^d | 60.5 ^d | – | – | – |
| 1-(pyrrolidin-1-yl)-3-azabicyclononane [Compound 4] | 764.8 ^d | 72.90 ^d | 1013 | – | – |
| 5-(piperidin-1-yl)-2-azabicyclo-nonane [Compound 1] | 140.2 ^d | 13.70 ^d | – | – | – |
| 5-(pyrrolidin-1-yl)-2-azabicyclononane [Compound 2] | – | 103.0 ^d | – | – | – |
| Cc1cc(N2CC3C(c4ccccc4)CC(N4CCCCC4)(CC3c3ccccc3)C2)nc(N)n1 (racemic) [Compound 7] | – | – | – | 103.6–155.6 and 155.6 | 13.96 |
| Cc1cc(N2CC3C(c4ccccc4)CC(N4CCCC4)(CC3c3ccccc3)C2)nc(N)n1 (racemic) [Compound 8] | – | – | 72.3 | – | 13.91 |
| Nc1cc(N2CC3C(c4ccccc4)CC(N4CCCCC4)(CC3c3ccccc3)C2)nc(N)n1 (racemic) [Compound 11] | – | – | 188.3 | 49.51 | 21.54 |
| Nc1cc(N2CC3C(c4ccccc4)CC(N4CCCC4)(CC3c3ccccc3)C2)nc(N)n1 (racemic) [Compound 12] | – | – | – | 64.87 | 11.76 |
| Cc1cc(N2CC3C(c4ccccc4)CC(N4CCCCC4)(CC3c3ccccc3)C2)nc(Cl)n1 (racemic) [Compound 15, rac-(7R,8R)-3-(2-chloro-6-methylpyrimidin-4-yl)-6,9-diphenyl-1-(piperidin-1-yl)-3-azabicyclo[3.2.2]nonane] | – | – | 18.23 | 13.09 | 2.86 |
| Cc1cc(N2CC3C(c4ccccc4)CC(N4CCCC4)(CC3c3ccccc3)C2)nc(Cl)n1 (racemic) [Compound 16, rac-(7R,8R)-3-(2-chloro-6-methylpyrimidin-4-yl)-6,9-diphenyl-1-(pyrrolidin-1-yl)-3-azabicyclo[3.2.2]nonane] | – | – | 44.63 | 42.97 | 2.91 |
| Cc1cc(N2CC3C(c4ccccc4)CC(N4CCCCC4)(CC3c3ccccc3)C2)nc(N2CCCC2)n1 (racemic) [Compound 19, rac-(7R,8R)-3-[6-methyl-2-(pyrrolidin-1-yl)pyrimidin-4-yl]-6,9-diphenyl-1-(piperidin-1-yl)-3-azabicyclo[3.2.2]nonane] | – | – | 11.05 | 84.23 | 18.49 |
| Cc1cc(N2CC3C(c4ccccc4)CC(N4CCCC4)(CC3c3ccccc3)C2)nc(N2CCCC2)n1 (racemic) [Compound 20, rac-(7R,8R)-3-[6-methyl-2-(pyrrolidin-1-yl)pyrimidin-4-yl]-6,9-diphenyl-1-(pyrrolidin-1-yl)-3-azabicyclo[3.2.2]nonane] | – | – | 47.82 | 47.95 | 5.44 |
| Cc1cc(N2CC3C(c4ccccc4)CC(N4CCCCC4)(CC3c3ccccc3)C2)nc(N2CCCCC2)n1 (racemic) [Compound 23, rac-(7R,8R)-3-[6-methyl-2-(piperidin-1-yl)pyrimidin-4-yl]-6,9-diphenyl-1-(piperidin-1-yl)-3-azabicyclo[3.2.2]nonane] | – | – | 26.33 | 28.04 | 4.73 |
| Cc1cc(N2CC3C(c4ccccc4)CC(N4CCCC4)(CC3c3ccccc3)C2)nc(N2CCCCC2)n1 (racemic) [Compound 24, rac-(7R,8R)-3-[6-methyl-2-(piperidin-1-yl)pyrimidin-4-yl]-6,9-diphenyl-1-(pyrrolidin-1-yl)-3-azabicyclo[3.2.2]nonane] | – | – | 16.31 | – | 42.63 |
| CCN(CC)CCCC(C)Nc1ccnc2cc(Cl)ccc12 (stereo not shown) [CQ, chloroquine, reference compound] | – | – | 23313 | 558.4 | – |
| Nc1nc(N)nc(Nc2ccc([As]3SCC(CO)S3)cc2)n1 (stereo not shown) [MEL, melarsoprol, reference compound] | – | – | – | – | 778.0 |

Values joined by “and” are separate entries in the source; they are usually repeats but may differ in a detail not shown here. Identical values can stand only once. Like-named read-outs stand apart in the source and are kept apart here. Marks after values point to notes of the source that are not given here.
